By UniProt entry, the sequences of proteins in these tests, tags left out. Where a name states a change or a piece, a line headed by the entry shows the natural chain unless it says otherwise. Residues count along the entry.
UniProt P14780: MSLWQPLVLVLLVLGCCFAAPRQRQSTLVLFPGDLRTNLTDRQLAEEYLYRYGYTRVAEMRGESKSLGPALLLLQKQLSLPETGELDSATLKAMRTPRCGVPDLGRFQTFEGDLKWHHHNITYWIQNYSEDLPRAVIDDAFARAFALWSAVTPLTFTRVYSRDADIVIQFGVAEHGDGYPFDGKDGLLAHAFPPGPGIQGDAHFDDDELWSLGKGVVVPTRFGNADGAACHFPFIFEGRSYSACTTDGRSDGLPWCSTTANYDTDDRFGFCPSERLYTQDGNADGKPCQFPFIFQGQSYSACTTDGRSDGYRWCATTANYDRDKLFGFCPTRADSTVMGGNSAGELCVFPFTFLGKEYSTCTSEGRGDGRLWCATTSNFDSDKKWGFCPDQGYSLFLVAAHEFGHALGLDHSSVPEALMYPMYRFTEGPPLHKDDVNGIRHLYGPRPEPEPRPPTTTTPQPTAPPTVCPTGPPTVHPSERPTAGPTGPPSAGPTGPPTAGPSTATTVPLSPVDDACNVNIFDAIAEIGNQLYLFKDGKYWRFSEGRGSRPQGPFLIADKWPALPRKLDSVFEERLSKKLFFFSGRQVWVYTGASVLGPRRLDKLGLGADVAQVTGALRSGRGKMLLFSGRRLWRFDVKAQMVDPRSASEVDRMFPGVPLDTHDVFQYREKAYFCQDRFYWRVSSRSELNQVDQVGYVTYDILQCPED
UniProt P01033, residues 24-207: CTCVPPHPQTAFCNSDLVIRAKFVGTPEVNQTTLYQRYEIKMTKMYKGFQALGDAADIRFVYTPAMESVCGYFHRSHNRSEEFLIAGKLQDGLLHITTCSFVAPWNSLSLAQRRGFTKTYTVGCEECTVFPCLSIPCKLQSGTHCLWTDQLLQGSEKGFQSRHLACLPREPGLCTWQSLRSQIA

In article PMC5523156:

Biological target: Recombinant MMP-9 (rMMP-9) human (human) (UniProt P14780)
Experiment: AlphaScreen or HTRF; AlphaLISA no-wash sandwich immunoassay: MMP-9 captured by anti-MMP-9 antibody on acceptor beads, TIMP-1 by biotinylated anti-TIMP-1 antibody on streptavidin donor beads; cross-titration of recombinant proteins at 0, 30, 100, 300 and 1,000 ng/mL each, pre-incubated 60 min at room temperature; assay buffer HEPES, NaCl, BSA, Tween-20, pH 7.4; also tested with H2O2; both purified

**Q.** For “Recombinant TIMP-1 (rTIMP-1) human (from UniProt P01033 24-207)”, which binding is on record?
**A.** binds

These are yes or no findings as the source states them, for the method shown. Binding calls can cover weak binding; strength is not graded here.
